Test results taken from patent US12648899B2, “Cosmetic salts” (TARA BRANDS EUROPE S.L.U., priority 2022, dated 2026).

Test: Thiol recombination: reaction of the test compound with cysteine reagent, conversion to mono- and bis-adduct monitored by LC-MS
Settings: bis-adduct, 1 eq. compound (0.02 M) + 4 eq. N-Cbz-cysteine, phosphate buffer pH=5.4, 30° C.

## NCCCOCCOCCOCCCN.O=C(O)C=CC(=O)O.O=C(O)C=CC(=O)O [Olaplex active agent]
30 min
  Conversion at 30 min: 4% bis
60 min
  Conversion at 60 min: 7% bis
5 h
  Conversion at 5 h: 18% bis
